Substitutions are numbered along the chain they refer to. No constants are given. Whether binding was seen depends on the method and setting. Some binding calls cover weakened binding; strength is not graded here. Each block holds one binder with its values, some of them ahead of it.
Legend:
[1] = molecular target: mTEAD4 (residues 210-427) (mouse) (UniProt Q62296); assay: crystal structure; mTAZ (25-57) with mTEAD4 (210-427), co-expressed and co-purified; hanging drops, 6% PEG 10000, 0.05 M magnesium acetate, 0.1 M tri-sodium citrate pH 5.2, 20 °C; 2.9 Å; 4 TAZ and 4 TEAD in the asymmetric unit, two binding modes (1:1 and 2:2); both purified
[2] = molecular target: T1, mTEAD4 (residues 210-427) Cys360Ser (mouse, UniProt Q62296 210-427, Cys360 replaced with serine); assay: SEC-MALS; control without cross-linking; Superdex 75 5/150 GL, 20 mM Tris pH 8, 150 mM sodium chloride, 25 ul of 6 mg/ml; both purified
T1 construct: TEAD4, mouse, residues 210-427, surface-exposed Cys360 replaced with serine; also called TEAD Cys360 to serine; source: E. coli BL21 (DE3), co-expressed with mTAZ (25-57) Asn33Cys, purified as a complex as the wild type

The chains behind the UniProt entries cited, without tags or fusion partners. Where a name states a change or a piece, a line headed by the entry shows the natural chain unless it says otherwise. A line that says so, or that is headed by a name, gives the form on record, which may keep a tag or linker. Residues count along the entry.
mTEAD4 (residues 210-427) (Q62296, residues 210-427): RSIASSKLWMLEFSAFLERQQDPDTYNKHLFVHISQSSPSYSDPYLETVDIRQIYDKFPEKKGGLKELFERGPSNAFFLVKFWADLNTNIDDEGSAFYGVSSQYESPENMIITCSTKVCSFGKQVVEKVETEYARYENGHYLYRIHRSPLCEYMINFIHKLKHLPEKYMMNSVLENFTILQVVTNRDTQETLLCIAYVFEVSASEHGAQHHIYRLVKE
mTEAD4 (residues 210-427) Cys360Ser (Q62296, form named): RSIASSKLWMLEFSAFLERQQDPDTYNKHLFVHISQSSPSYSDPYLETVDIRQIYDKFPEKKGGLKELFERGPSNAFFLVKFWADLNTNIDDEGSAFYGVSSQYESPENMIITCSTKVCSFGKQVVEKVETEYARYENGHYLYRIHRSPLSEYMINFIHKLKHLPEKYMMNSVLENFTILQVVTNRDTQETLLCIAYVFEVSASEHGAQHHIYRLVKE

[3] = molecular target: T1, mTEAD4 (residues 210-427) Cys360Ser; assay: cross-linking + SEC-MALS; specific disulfide cross-linking of TAZ Asn33Cys with 1.5 mM CuCl2 and 5 mM phenanthroline, 1 hour at 25 °C, stopped with 50 mM EDTA; Superdex 75 5/150 GL, 20 mM Tris pH 8, 150 mM sodium chloride; both purified

- binding [1]: binds
B1: mTAZ (residues 25-57) (domain or fragment, mouse, UniProt Q9EPK5 25-57, looked up)
chain: DTDLEALFNSVMNPKPSSWRKKILPESFFKEPD
notes: TAZ (WWTR1), mouse, residues 25-57 (helix α1, 13-residue loop, helix α2); Cloned with mTEAD4 in a modified pETDuet-1 vector; also called mouse TAZ; not shown: His6, N-terminal, cleaved

- binding [2]: binds
- binding [3]: binds
B2: mTAZ (residues 25-57) Asn33Cys (domain or fragment, mouse, UniProt Q9EPK5 25-57, looked up)
chain: B1 chain with N9C
notes: TAZ (WWTR1), mouse, residues 25-57, Asn33 replaced with cysteine for disulfide cross-linking; In the cross-linked sample Cys33 of two copies is joined by a disulfide (copper phenanthroline); in the control and DTT samples it is not; also called TAZ Asn33Cys; source: E. coli BL21 (DE3), co-expressed with mTEAD4 (210-427) Cys360Ser, purified as a complex as the wild type; not shown: His6, …

From article PMC5435683, “Crystal structure of TAZ-TEAD complex reveals a distinct interaction mode from that of YAP-TEAD complex” (Scientific Reports, 2017)
